Results are given in words; binding and its absence hold for the method and conditions named. Binding seen in cells or lysates may run through a third protein. Some binding calls cover weakened binding; strength is not graded here. For some of these results: Tags and fused reporters may be left off the sequences shown.
Legend:
[1] = molecular target: T1, Flag-IKKα (human) (UniProt O15111); assay: co-IP; HEK293T cotransfected, collected 48 h post-transfection; Pierce IP lysis buffer (1% NP-40, 25 mM Tris-HCl pH 7.4, 1 mM EDTA, 150 mM NaCl, 5% glycerol); Flag-M2 beads 6 h at 4 °C; immunoblot
T1 sequence: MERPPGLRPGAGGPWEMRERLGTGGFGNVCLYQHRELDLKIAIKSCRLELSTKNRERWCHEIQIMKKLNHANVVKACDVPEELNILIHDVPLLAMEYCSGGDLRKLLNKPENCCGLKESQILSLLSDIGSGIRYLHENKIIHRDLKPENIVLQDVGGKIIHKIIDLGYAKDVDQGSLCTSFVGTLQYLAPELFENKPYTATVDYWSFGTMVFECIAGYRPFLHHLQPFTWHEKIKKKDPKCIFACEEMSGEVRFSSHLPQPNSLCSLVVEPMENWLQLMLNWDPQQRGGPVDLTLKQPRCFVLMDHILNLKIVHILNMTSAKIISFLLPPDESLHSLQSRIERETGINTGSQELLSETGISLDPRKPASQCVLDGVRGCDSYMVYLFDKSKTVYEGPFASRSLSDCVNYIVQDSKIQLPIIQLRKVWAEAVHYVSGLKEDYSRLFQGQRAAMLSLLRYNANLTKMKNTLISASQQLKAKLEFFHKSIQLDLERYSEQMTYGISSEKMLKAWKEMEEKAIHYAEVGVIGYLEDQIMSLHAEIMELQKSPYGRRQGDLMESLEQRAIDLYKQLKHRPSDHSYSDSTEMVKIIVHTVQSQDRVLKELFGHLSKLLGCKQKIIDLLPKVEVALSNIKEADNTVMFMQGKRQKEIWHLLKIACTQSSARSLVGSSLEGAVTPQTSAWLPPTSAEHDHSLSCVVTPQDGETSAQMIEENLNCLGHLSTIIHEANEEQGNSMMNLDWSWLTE

[2] = molecular target: T2, endogenous IKKα (human (endogenous in HUVECs)) (UniProt O15111); assay: co-IP; normal HUVECs, both proteins endogenous; anti-IKKα antibody (CST 2682) with protein A/G Plus-Agarose, 6 h at 4 °C; immunoblot
T2 sequence: T1 sequence

[3] = molecular target: T3, GST-fused IKKα SDD domain (human) (UniProt O15111); assay: pull-down; GST-fused truncation mutants coexpressed with the Flag-tagged partner in HEK293T; Pierce IP lysis buffer; glutathione sepharose 4B beads; immunoblot
T3 sequence: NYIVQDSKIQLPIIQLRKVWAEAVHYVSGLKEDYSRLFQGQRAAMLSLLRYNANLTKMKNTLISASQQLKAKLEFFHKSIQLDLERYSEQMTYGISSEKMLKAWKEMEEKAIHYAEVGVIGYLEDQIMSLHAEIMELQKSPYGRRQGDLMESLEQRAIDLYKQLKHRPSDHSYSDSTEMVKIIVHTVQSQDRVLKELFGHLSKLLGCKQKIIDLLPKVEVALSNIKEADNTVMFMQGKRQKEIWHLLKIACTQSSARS

[4] = molecular target: T4, GST-IKKα (human), O15111; assay: co-IP; HEK293T cotransfected with GST-IKKα and Flag-IKKα (WT, K296R, S176/180A) or IKKβ; test of dimerisation (Supplementary Fig. 5k); conditions: remark: other sources report otherwise
T4 chain: T1 sequence

B1: HECTD3 (exogenous, no tag named) (enzyme, UniProt Q5T447 1-861)
chain: MAGPGPGAVLESPRQLLGRVRFLAEAARSLRAGRPLPAALAFVPREVLYKLYKDPAGPSRVLLPVWEAEGLGLRVGAAGPAPGTGSGPLRAARDSIELRRGACVRTTGEELCNGHGLWVKLTKEQLAEHLGDCGLQEGWLLVCRPAEGGARLVPIDTPNHLQRQQQLFGVDYRPVLRWEQVVDLTYSHRLGSRPQPAEAYAEAVQRLLYVPPTWTYECDEDLIHFLYDHLGKEDENLGSVKQYVESIDVSSYTEEFNVSCLTDSNADTYWESDGSQCQHWVRLTMKKGTIVKKLLLTVDTTDDNFMPKRVVVYGGEGDNLKKLSDVSIDETLIGDVCVLEDMTVHLPIIEIRIVECRDDGIDVRLRGVKIKSSRQRELGLNADLFQPTSLVRYPRLEGTDPEVLYRRAVLLQRFIKILDSVLHHLVPAWDHTLGTFSEIKQVKQFLLLSRQRPGLVAQCLRDSESSKPSFMPRLYINRRLAMEHRACPSRDPACKNAVFTQVYEGLKPSDKYEKPLDYRWPMRYDQWWECKFIAEGIIDQGGGFRDSLADMSEELCPSSADTPVPLPFFVRTANQGNGTGEARDMYVPNPSCRDFAKYEWIGQLMGAALRGKEFLVLALPGFVWKQLSGEEVSWSKDFPAVDSVLVKLLEVMEGMDKETFEFKFGKELTFTTVLSDQQVVELIPGGAGIVVGYGDRSRFIQLVQKARLEESKEQVAAMQAGLLKVVPQAVLDLLTWQELEKKVCGDPEVTVDALRKLTRFEDFEPSDSRVQYFWEALNNFTNEDRSRFLRFVTGRSRLPARIYIYPDKLGYETTDALPESSTCSSTLFLPHYASAKVCEEKLRYAAYNCVAIDTDMSPWEE
binding [1]: binds

B2: endogenous HECTD3 (enzyme, UniProt Q5T447 1-861)
chain: B1 chain
binding [2]: binds

B3: Flag-HECTD3 (enzyme, UniProt Q5T447 1-861)
chain: B1 chain
binding [3]: binds

B4: Flag-IKKα, O15111 1-745 (enzyme)
chain: T1 sequence
binding [4]: binds

— PMC9345961
